No constants are given. Whether binding was seen depends on the method and setting. Some entries that bind do so weakly or less than the wild type. For some assays here: Where a sequence is shown, tags or fusion partners need not be part of it.

The values below come from publication PMC5793090 (Toxins, 2017).

Assay [1] has as its target T1, Lu/BCAM on the surface of HeLa cells (human (endogenous in HeLa)) (UniProt P50895).
T1 sequence: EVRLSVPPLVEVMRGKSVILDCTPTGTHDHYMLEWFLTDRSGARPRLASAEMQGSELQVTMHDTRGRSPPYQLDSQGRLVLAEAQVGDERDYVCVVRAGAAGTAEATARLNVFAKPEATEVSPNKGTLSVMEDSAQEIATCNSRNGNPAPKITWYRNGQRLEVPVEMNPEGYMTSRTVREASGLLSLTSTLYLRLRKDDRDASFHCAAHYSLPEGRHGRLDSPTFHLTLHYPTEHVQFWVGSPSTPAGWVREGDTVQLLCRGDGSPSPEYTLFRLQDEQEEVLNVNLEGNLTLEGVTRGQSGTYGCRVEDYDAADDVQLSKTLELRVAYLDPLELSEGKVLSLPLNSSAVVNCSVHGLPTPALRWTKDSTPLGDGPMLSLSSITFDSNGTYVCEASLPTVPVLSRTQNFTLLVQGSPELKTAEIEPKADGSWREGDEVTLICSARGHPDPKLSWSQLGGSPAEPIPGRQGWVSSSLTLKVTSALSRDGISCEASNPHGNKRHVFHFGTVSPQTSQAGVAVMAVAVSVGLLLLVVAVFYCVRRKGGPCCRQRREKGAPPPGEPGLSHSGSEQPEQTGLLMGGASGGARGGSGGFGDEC
Briefly: flow cytometry on cells; competition: HeLa cells (3 × 10^5 in 1 mL medium) preincubated with unlabeled CNF proteins at different molar ratios, 30 min at 4 °C, washed, then DyLight488-labeled GST-CNF1; bound fluorescence against the control without preincubation; only the binder purified. For orientation: In flow cytometry, cells or beads pass a laser one at a time.

Assay [2] addresses T2, Lu expressed on K562 cells (UniProt P50895).
T2 sequence: T1 sequence
The assay is described as follows: flow cytometry on cells; only the binder purified.

Assay [3] has as its target GST-CNF1 (726–1014) (Escherichia coli) (UniProt Q47106). Briefly: far-Western, overlay or dot blot; CNF proteins spotted on a nitrocellulose membrane, incubated with 5 µM rLu/BCAM in TBST for 30 min, then blocked with 5% milk; bound rLu/BCAM detected with an anti-Lu/BCAM antibody; both purified.
The target in assay [4] is GST-CNF1 (K726S S727I) (Escherichia coli) (UniProt Q47106). Described as above.
Assay [5] concerns the target GST-CNF1 (730–1014) (Escherichia coli) (UniProt Q47106). The description is as above.

With “GST-CNF1 (720–1014) (from UniProt Q47106 720-1014) (domain or fragment)”, the binding result in assay [1] is “binds”.
On the same count and under the same terms, for “GST-CNF1 (K726S S727I) (from UniProt Q47106 1-1014)” the value was “binds”.
In the case of “GST-CNF1 (full-length Cytotoxic Necrotizing Factor 1 of Escherichia coli as GST fusion) (from UniProt Q47106 1-1014)”, the binding entry in assay [1] and in assay [2] was “binds” in each case.
As to “GST-CNF1 (726–1014) (from UniProt Q47106 726-1014) (domain or fragment)”, in assay [1], the binding entry was “binds”.

B1: Recombinant human extracellular rLu/BCAM with Fc-tag (Fc fusion)
chain: EVRLSVPPLVEVMRGKSVILDCTPTGTHDHYMLEWFLTDRSGARPRLASAEMQGSELQVTMHDTRGRSPPYQLDSQGRLVLAEAQVGDERDYVCVVRAGAAGTAEATARLNVFAKPEATEVSPNKGTLSVMEDSAQEIATCNSRNGNPAPKITWYRNGQRLEVPVEMNPEGYMTSRTVREASGLLSLTSTLYLRLRKDDRDASFHCAAHYSLPEGRHGRLDSPTFHLTLHYPTEHVQFWVGSPSTPAGWVREGDTVQLLCRGDGSPSPEYTLFRLQDEQEEVLNVNLEGNLTLEGVTRGQSGTYGCRVEDYDAADDVQLSKTLELRVAYLDPLELSEGKVLSLPLNSSAVVNCSVHGLPTPALRWTKDSTPLGDGPMLSLSSITFDSNGTYVCEASLPTVPVLSRTQNFTLLVQGSPELKTAEIEPKADGSWREGDEVTLICSARGHPDPKLSWSQLGGSPAEPIPGRQGWVSSSLTLKVTSALSRDGISCEASNPHGNKRHVFHFGTVSPQTSQA
notes: also called rLu/BCAM-Fc; recombinant Lu/BCAM; source: bought: Hölzel Diagnostika Handels GmbH
As to B1, the binding entry is reported as “binds weakly” in assay [3], “binds” in assay [4] and “no binding (tested: 5 µM)” in assay [5].
